Test [1] concerns the target Nfu1-Strep (S. cerevisiae). In words: co-IP; Strep-tag affinity purification: isolated yeast mitochondria solubilized with 0.1% DDM in 50 mM NaH2PO4 pH 8.0, 300 mM NaCl; lysate on Strep-Tactin superflow beads 16 hr at 4°C; eluted with 2.5 mM desthiobiotin; immunoblotting; also done in cells lacking Bol1 and Bol3 and in isa2 deletion cells (enhanced co-purification of clients). In general terms: In western blotting, separated proteins are transferred to a membrane and probed.

Test [2] deals with Nfu1 AxxA mutant, Strep-tagged (S. cerevisiae). The description is as above.
The target of test [3] is G^194C Nfu1 mutant, Strep-tagged (S. cerevisiae). The description is as above.
Test [4] concerns the target Nfu1-Strep (S. cerevisiae). In words: SEC; mitochondrial lysates (sonication, 50 mM NaPO4, 150 mM NaCl, pH 7.0) of Nfu1-Strep or Bol3-Strep cells chromatographed separately on HiLoad Superdex 75 PG 16/600; fractions immunoblotted; DTT left the Nfu1 elution unaffected, dithionite attenuated the apparent dimer. (In general: In gel filtration, larger molecules generally elute earlier.)

Results are given in words; binding and its absence hold for the method and conditions named. For some of these results: Binding seen in cells or lysates may run through a third protein. For some of these results: A result given as binding can be weak or reduced; the word gives no strength. For some of these results: Tags and fused reporters may be left off the sequences shown.

B1: Rip1 (protein, UniProt P08067 31-215)
chain: KSTYRTPNFDDVLKENNDADKGRSYAYFMVGAMGLLSSAGAKSTVETFISSMTATADVLAMAKVEVNLAAIPLGKNVVVKWQGKPVFIRHRTPHEIQEANSVDMSALKDPQTDADRVKDPQWLIMLGICTHLGCVPIGEAGDFGGWFCPCHGSHYDISGRIRKGPAPLNLEIPAYEFDGDKVIVG
For the molecule B1, in test [1], the binding entry is given as “no binding”.

B2: Sdh2 (protein, UniProt P21801 21-266)
chain: TATTAAATHTPRLKTFKVYRWNPDEPSAKPHLQSYQVDLNDCGPMVLDALLKIKDEQDSTLTFRRSCREGICGSCAMNIGGRNTLACICKIDQNESKQLKIYPLPHMFIVKDLVPDLTNFYQQYKSIQPYLQRSSFPKDGTEVLQSIEDRKKLDGLYECILCACCSTSCPSYWWNQEQYLGPAVLMQAYRWLIDSRDQATKTRKAMLNNSMSLYRCHTIMNCTRTCPKGLNPGLAIAEIKKSLAFA
Regarding B2, the binding entry in test [1] is “binds”.

B3: Aco2-HA (protein, UniProt P39533 15-789)
chain: ATHANMFPSVSKNFQTKVPPYAKLLTNLDKIKQITNNAPLTLAEKILYSHLCDPEESITSSDLSTIRGNKYLKLNPDRVAMQDASAQMALLQFMTTGLNQTSVPASIHCDHLIVGKDGETKDLPSSIATNQEVFDFLESCAKRYGIQFWGPGSGIIHQIVLENFSAPGLMMLGTDSHTPNAGGLGAIAIGVGGADAVDALTGTPWELKAPKILGVKLTGKLNGWSTPKDVITKLAGLLTVRGGTGYIVEYFGEGVSTLSCTGMATICNMGAEIGATTSTFPYQEAHKRYLQATNRAEVAEAADVALNKFNFLRADKDAQYDKVIEIDLSAIEPHVNGPFTPDLSTPISQYAEKSLKENWPQKVSAGLIGSCTNSSYQDMSRVVDLVKQASKAGLKPRIPFFVTPGSEQIRATLERDGIIDIFQENGAKVLANACGPCIGQWNREDVSKTSKETNTIFTSFNRNFRARNDGNRNTMNFLTSPEIVTAMSYSGDAQFNPLTDSIKLPNGKDFKFQPPKGDELPKRGFEHGRDKFYPEMDPKPDSNVEIKVDPNSDRLQLLEPFKPWNGKELKTNVLLKVEGKCTTDHISAAGVWLKYKGHLENISYNTLIGAQNKETGEVNKAYDLDGTEYDIPGLMMKWKSDGRPWTVIAEHNYGEGSAREHAALSPRFLGGEILLVKSFARIHETNLKKQGVLPLTFANESDYDKISSGDVLETLNLVDMIAKDGNNGGEIDVKITKPNGESFTIKAKHTMSKDQIDFFKAGSAINYIGNIRRNE
On to B3, for which the binding entry in test [1] is on record as “binds”.

B4: Lys4-HA (protein, UniProt P49367 18-693)
chain: LKGQNLTEKIVQSYAVNLPEGKVVHSGDYVSIKPAHCMSHDNSWPVALKFMGLGATKIKNPSQIVTTLDHDIQNKSEKNLTKYKNIENFAKKHHIDHYPAGRGIGHQIMIEEGYAFPLNMTVASDSHSNTYGGLGSLGTPIVRTDAAAIWATGQTWWQIPPVAQVELKGQLPQGVSGKDIIVALCGLFNNDQVLNHAIEFTGDSLNALPIDHRLTIANMTTEWGALSGLFPVDKTLIDWYKNRLQKLGTNNHPRINPKTIRALEEKAKIPKADKDAHYAKKLIIDLATLTHYVSGPNSVKVSNTVQDLSQQDIKINKAYLVSCTNSRLSDLQSAADVVCPTGDLNKVNKVAPGVEFYVAAASSEIEADARKSGAWEKLLKAGCIPLPSGCGPCIGLGAGLLEPGEVGISATNRNFKGRMGSKDALAYLASPAVVAASAVLGKISSPAEVLSTSEIPFSGVKTEIIENPVVEEEVNAQTEAPKQSVEILEGFPREFSGELVLCDADNINTDGIYPGKYTYQDDVPKEKMAQVCMENYDAEFRTKVHPGDIVVSGFNFGTGSSREQAATALLAKGINLVVSGSFGNIFSRNSINNALLTLEIPALIKKLREKYQGAPKELTRRTGWFLKWDVADAKVVVTEGSLDGPVILEQKVGELGKNLQEIIVKGGLEGWVKSQL
On to B4, for which, in test [1], the binding result was “binds”.

B5: Lys4 chromosomally tagged with GFP (protein, UniProt P49367 18-693)
chain: B4 chain
For the molecule B5, the binding result in test [2] and in test [1] was “binds” each time.

B6: WT Aco1 (expressed in the nfu1 deletion background, Figure 5E) (protein, UniProt P19414 17-778)
chain: ATVSNLTRDSKVNQNLLEDHSFINYKQNVETLDIVRKRLNRPFTYAEKILYGHLDDPHGQDIQRGVSYLKLRPDRVACQDATAQMAILQFMSAGLPQVAKPVTVHCDHLIQAQVGGEKDLKRAIDLNKEVYDFLASATAKYNMGFWKPGSGIIHQIVLENYAFPGALIIGTDSHTPNAGGLGQLAIGVGGADAVDVMAGRPWELKAPKILGVKLTGKMNGWTSPKDIILKLAGITTVKGGTGKIVEYFGDGVDTFSATGMGTICNMGAEIGATTSVFPFNKSMIEYLEATGRGKIADFAKLYHKDLLSADKDAEYDEVVEIDLNTLEPYINGPFTPDLATPVSKMKEVAVANNWPLDVRVGLIGSCTNSSYEDMSRSASIVKDAAAHGLKSKTIFTVTPGSEQIRATIERDGQLETFKEFGGIVLANACGPCIGQWDRRDIKKGDKNTIVSSYNRNFTSRNDGNPQTHAFVASPELVTAFAIAGDLRFNPLTDKLKDKDGNEFMLKPPHGDGLPQRGYDAGENTYQAPPADRSTVEVKVSPTSDRLQLLKPFKPWDGKDAKDMPILIKAVGKTTTDHISMAGPWLKYRGHLENISNNYMIGAINAENKKANCVKNVYTGEYKGVPDTARDYRDQGIKWVVIGDENFGEGSSREHAALEPRFLGGFAIITKSFARIHETNLKKQGLLPLNFKNPADYDKINPDDRIDILGLAELAPGKPVTMRVHPKNGKPWDAVLTHTFNDEQIEWFKYGSALNKIKADEKK
In the case of B6, the binding result in test [1] is reported as “binds”.

B7: Aco1 (protein, UniProt P19414 17-778)
chain: B6 chain
For the molecule B7, the binding entry in test [3] is reported as “binds”; in test [2] it was “no binding”; in test [1], “binds”.

B8: Isa1 (protein, UniProt Q07821 1-250)
chain: MINTGRSRNSVLLAHRFLSTGGFWRGGTNGTMSRTINNVNPFKLKFIPKTVPAAADSVSPDSQRPGKKPFKFIVSNQSKSSKASKSPKWSSYAFPSRETIKSHEEAIKKQNKAIDEQIAAAVSKNDCSCTEPPKKRKRKLRPRKALITLSPKAIKHLRALLAQPEPKLIRVSARNRGCSGLTYDLQYITEPGKFDEVVEQDGVKIVIDSKALFSIIGSEMDWIDDKLASKFVFKNPNSKGTCGCGESFMV
Consider B8, for which the binding result in test [1] was “binds”.

B9: Bol3-Strep (protein, UniProt P39724 1-118)
chain: MKLPQTMLRSISVKHVRWPRILTGSKLWYSTQMAMTPEEKMITDKLQQELEPEVCKVQDVSGGCGSMFAINITSKKFNGLSLIKQHQLVNRILRDDISRWHGLQLTTKKSTGKGPASS
In the case of B9, the binding entry in test [4] is on record as “no binding”.

B10: Isa2 (protein, UniProt Q12425 1-185)
chain: MQAKLLFTRLNFRRPSTTLRQFPLTCFLFHSKAFYSDLVTKEPLITPKRIINKTPGLNLSISERASNRLAEIYRNSKENLRISVESGGCHGFQYNLTLEPATKPDIKNDVKDKEFSDDLDDDDSKDIIYVLPEDKGRVIIDSKSLNILNNTTLTYTNELIGSSFKIINGSLKSSCGCGSSFDIEN
In the case of B10, the binding entry in test [1] is recorded as “binds”.

(Values after article PMC5014551.)
